Test: Total protein and SI protein contents in E. coli cells expressing SI genes

Question: Which Sucrose isomerase content (E. coli cells with SI gene, including background of approximately 2% proteins that migrated with the SI) does the source give for “Erwinia rhapontici: sucrose isomerase cloned from Erwinia rhapontici WAC2928, SEQ ID NO: 2, mature polypeptide SEQ ID NO: 4” here?
Answer: Its Sucrose isomerase content is 12.2 ± 1.5 % total proteins.

Question: And the Total protein content (E. coli cells with SI gene, means ± standard errors, 3 replications)?
Answer: Its Total protein content is 15.97 ± 1.63 % dry weight.

Question: What about the “expression level of sucrose isomerase, of total protein” value (E. coli, same vector, promoter, start codon and termination sequences) of the same substance?
Answer: Its value is “around 10%”.

Source: US7977082B2, “Isomaltulose synthases, polynucleotides encoding them and uses therefor” (The University of Queensland of St. Lucia, priority 2001, dated 2011)
